# Laboratory results reported in US7452691B2, “Device and method for detecting antibiotic inactivating enzymes” (priority 2005, dated 2008).
# At least one structure is not confirmed: it was looked up by name or label, or the drawing left a doubt.
# Legend:
# Class A Carbapenemases = assay: Indirect TE disk test for detection of Class A Carbapenemases; type: cell-based
# Description: Methods: 21 strains that produced Class A Carbapenemases (“CACs”) comprising 12 Klebsiella pneumoniae, 5 Enterobacter cloacae, 2 Escherichia coli, and 2 Serratia marcescens; 10 strains of Acinetobacter baumannii, Pseudomonas aeruginosa, and S. marcescens that produced either a metallo-beta-lactamase or an OXA carbapenemases, and 11 strains of Enterobacteriaceae that produced either AmpC β-lactamases or ESBLs were investigated. The test was performed essentially as described in Example 5, with any changes noted below. The indirect test involved inoculation of the surface of a Mueller-Hinton (MH) agar plate with a lawn of E. coli ATCC 25922, not the test organism. Immediately prior to incubation, a premoistened TE disk was inoculated with several colonies of the test organism and placed face down on the MH agar adjacent to a disk containing one of the carbapenems, imipenem (IPM), meropenem (MER), or ertapenem (ERT). After overnight incubation, an indentation of the zone inhibition was interpreted as positive.
# [1] = system: K. pneumoniae clinical isolates (KPC producers); assay: CLSI disk diffusion test with imipenem disk; type: cell-based; conditions: Twenty-two of the 26 KPC positive K. pneumoniae clinical isolates
smiles,measurement,setting,value
"C[C@@H](O)[C@H]1C(=O)N2C(C(=O)O)=C(SCCN=CN)C[C@H]12 [IPM, imipenem]",CACs detected by indirect TE disk test,"Class A Carbapenemases; 21 CAC-producing strains, E. coli ATCC 25922 lawn",all
same,False positive results in indirect TE disk test,"Class A Carbapenemases; strains producing non-CAC enzymes (metallo/OXA carbapenemases, AmpC, ESBLs)",false positive test
same,Susceptibility of KPC producers,[1],susceptible
